No constants are given. Whether binding was seen depends on the method and setting. In cells and extracts the contact can be indirect. Some binding calls cover weakened binding; strength is not graded here. For some assays here: Sequences can lack the tags named with a protein.
Experiments:
Assay in all cases: co-IP
[1] = molecular target: T1, N-terminal GFP tagged RBM14 (mouse (cDNA from C2C12 myoblast cells)) (UniProt Q8C2Q3)
T1 sequence: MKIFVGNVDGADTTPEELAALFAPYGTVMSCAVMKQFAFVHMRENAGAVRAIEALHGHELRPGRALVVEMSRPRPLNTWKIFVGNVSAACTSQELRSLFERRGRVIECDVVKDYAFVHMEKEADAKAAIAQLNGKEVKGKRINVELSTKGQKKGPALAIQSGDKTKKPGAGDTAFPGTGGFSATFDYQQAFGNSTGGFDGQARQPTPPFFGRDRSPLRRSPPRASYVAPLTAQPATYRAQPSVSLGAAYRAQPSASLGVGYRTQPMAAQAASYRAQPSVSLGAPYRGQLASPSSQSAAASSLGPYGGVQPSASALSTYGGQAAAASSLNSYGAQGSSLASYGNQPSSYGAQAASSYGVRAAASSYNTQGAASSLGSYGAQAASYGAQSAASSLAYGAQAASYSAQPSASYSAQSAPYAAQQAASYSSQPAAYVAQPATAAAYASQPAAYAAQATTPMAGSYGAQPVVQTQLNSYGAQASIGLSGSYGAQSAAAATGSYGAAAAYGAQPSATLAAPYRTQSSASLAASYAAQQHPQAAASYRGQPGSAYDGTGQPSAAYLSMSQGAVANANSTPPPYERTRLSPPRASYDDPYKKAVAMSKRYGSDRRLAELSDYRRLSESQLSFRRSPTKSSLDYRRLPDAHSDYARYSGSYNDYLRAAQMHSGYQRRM

Sequences of proteins named here, by UniProt entry; tags and fusion partners are left off.
UniProt Q9Z2D8: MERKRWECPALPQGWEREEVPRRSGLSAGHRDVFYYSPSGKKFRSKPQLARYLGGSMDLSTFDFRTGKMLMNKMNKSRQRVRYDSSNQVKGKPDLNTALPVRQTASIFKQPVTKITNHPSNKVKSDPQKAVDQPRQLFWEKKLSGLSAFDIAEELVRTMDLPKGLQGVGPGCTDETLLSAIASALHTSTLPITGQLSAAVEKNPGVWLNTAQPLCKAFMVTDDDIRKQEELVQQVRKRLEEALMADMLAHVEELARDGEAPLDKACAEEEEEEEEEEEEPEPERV
UniProt Q61686: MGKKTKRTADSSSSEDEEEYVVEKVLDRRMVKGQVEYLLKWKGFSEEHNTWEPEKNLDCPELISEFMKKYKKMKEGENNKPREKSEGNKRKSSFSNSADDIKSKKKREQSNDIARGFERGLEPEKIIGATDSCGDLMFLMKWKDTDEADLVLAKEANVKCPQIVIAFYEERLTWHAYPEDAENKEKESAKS
UniProt O09106: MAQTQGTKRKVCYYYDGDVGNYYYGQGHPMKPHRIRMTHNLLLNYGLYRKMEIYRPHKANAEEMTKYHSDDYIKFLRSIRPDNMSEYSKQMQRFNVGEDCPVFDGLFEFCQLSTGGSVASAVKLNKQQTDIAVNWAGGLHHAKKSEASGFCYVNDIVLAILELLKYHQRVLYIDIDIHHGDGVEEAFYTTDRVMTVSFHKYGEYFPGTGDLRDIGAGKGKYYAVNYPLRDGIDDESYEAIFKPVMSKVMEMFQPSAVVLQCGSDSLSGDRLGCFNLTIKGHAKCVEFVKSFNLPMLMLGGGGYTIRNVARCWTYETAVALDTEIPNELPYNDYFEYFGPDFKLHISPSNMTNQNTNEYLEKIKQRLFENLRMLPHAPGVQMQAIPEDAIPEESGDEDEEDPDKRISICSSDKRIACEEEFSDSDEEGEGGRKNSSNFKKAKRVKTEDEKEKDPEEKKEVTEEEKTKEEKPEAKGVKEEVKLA
UniProt Q04207: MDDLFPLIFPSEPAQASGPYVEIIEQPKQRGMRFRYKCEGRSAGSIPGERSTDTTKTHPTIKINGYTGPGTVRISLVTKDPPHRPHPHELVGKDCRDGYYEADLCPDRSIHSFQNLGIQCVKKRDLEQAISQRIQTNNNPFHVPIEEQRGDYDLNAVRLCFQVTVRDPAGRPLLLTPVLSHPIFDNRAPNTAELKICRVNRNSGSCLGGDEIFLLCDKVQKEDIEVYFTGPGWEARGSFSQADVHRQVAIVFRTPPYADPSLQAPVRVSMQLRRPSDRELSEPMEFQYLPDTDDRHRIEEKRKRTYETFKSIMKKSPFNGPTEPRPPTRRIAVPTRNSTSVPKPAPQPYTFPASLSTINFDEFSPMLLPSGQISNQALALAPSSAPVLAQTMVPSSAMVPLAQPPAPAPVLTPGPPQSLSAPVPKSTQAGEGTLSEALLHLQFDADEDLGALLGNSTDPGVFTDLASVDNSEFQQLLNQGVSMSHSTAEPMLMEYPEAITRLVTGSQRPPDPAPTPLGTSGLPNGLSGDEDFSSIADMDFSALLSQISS
UniProt Q64321: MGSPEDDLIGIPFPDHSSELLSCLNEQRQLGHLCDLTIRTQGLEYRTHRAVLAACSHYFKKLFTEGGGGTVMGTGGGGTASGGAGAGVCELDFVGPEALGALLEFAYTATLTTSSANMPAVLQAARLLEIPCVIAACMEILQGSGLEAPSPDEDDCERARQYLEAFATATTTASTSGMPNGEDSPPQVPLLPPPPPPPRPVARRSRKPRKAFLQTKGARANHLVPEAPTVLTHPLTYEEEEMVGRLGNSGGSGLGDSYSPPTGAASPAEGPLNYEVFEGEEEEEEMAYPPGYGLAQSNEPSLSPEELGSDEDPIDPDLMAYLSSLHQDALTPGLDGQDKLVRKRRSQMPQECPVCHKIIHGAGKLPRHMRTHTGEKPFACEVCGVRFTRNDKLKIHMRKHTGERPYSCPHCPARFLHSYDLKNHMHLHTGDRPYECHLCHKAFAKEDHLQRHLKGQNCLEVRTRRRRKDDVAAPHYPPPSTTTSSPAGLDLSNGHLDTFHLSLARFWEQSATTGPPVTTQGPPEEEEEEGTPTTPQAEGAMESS

[2] = molecular target: N-terminal GFP tagged MBD3 (mouse (cDNA from C2C12 myoblast cells)) (UniProt Q9Z2D8)
[3] = molecular target: N-terminal GFP tagged Cbx5 (mouse (cDNA from C2C12 myoblast cells)) (UniProt Q61686)
[4] = molecular target: N-terminal GFP tagged HDAC1 (mouse (cDNA from C2C12 myoblast cells)) (UniProt O09106)
[5] = molecular target: N-terminal GFP tagged p65 (mouse (cDNA from C2C12 myoblast cells)) (UniProt Q04207)

Measured: binding

N-terminal 3X-FLAG-tagged vertebrate GAF (vGAF/ThPOK/ZBTB7B), expressed in HEK293 cells (from UniProt Q64321 1-544)
binds: all assays above
